Patent US20220396788
Construct, isoform or probe ends are uncertain for at least one entry.

Protein sequences, listed by entry. Tags and fused reporters are not part of them. Lines headed by an entry give the natural chain unless they say otherwise; changes in a name come on top.
UniProt P07636: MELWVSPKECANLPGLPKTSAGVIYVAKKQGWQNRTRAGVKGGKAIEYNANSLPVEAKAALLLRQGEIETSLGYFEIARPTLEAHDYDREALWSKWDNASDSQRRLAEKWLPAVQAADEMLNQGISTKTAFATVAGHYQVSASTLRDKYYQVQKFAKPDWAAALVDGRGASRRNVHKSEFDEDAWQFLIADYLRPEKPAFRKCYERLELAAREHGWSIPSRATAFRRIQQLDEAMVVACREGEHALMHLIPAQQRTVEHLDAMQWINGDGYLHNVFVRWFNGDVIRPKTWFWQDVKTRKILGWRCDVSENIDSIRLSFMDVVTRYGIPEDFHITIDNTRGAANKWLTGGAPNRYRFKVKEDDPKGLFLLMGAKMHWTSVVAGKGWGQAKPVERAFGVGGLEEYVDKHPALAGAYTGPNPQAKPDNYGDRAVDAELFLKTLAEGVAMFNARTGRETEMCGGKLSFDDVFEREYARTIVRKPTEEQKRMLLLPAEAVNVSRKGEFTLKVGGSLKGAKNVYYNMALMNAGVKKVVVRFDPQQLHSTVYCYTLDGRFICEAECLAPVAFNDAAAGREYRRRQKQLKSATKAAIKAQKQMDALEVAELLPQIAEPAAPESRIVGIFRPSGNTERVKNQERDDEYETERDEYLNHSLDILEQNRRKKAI

Biological target: MuA transposase (UniProt P07636)
Assay: enzyme reaction in vitro
Conditions: DNA fragmentation, purified recombinant protein, variant of Mu-N0 transposon end (control)
[1] = among best activity of T7 variants

“GTTTTCGCATTTAATACGACTCACTATAGCGTTTTTCGTGCGCCGCTTCA / CTAGTGAAGCGGCGCACGAAAAACGCTATAGTGAGTCGTATTAAATGCGAAAAC [Tn-T7.1]” was tested, and the “activity on this sequence” value [1] was “active”.
In the case of “GTTTTCGCATTTAATATGACTCACTATAGCGTTTTTCGTGCGCCGCTTCA / CTAGTGAAGCGGCGCACGAAAAACGCTATAGTGAGTCATATTAAATGCGAAAAC [Tn-T7.3]”, the “activity on this sequence” value [1] is reported as “active”.
With “GTTTTCGCATTTAATATGACTCACTTTAGCGTTTTTCGTGCGCCGCTTCA / CTAGTGAAGCGGCGCACGAAAAACGCTAAAGTGAGTCATATTAAATGCGAAAAC [Tn-T7.4]” the “activity on this sequence” value [1] was “active”.
With “GTTTTCGCATTTATCGTGAAACGCTTTCGCGTATTACGTCTCACTATAGA / CTAGTCTATAGTGAGACGTAATACGCGAAAGCGTTTCACGATAAATGCGAAAAC [Tn-T7.6]” the “activity on this sequence” value (active) was “active”.
For “GTTTTCGCATTTATCGTGAAACGCTTTCGCGTTTTACGTCTCACTATAGA / CTAGTCTATAGTGAGACGTAAAACGCGAAAGCGTTTCACGATAAATGCGAAAAC [Tn-T7.7]”, the “activity on this sequence” value (active) was “active”.
For “TATTTCGACTCACTATTGAAACGCTTTCGCGTTTTTCGTGCGCCGCTTCA / CTAGTGAAGCGGCGCACGAAAAACGCGAAAGCGTTTCAATAGTGAGTCGAAATA [Tn-T7.8]”, the “activity on this sequence” value (active) was “active”.
